These are yes or no findings as the source states them, for the method shown. Binding seen in cells or lysates may run through a third protein. These calls come from enrichment with a bait or labelling near it, and not all partners need be listed. Tags and fused reporters may be left off the sequences shown.
T1: GST-HO-1 (heme oxygenase 1 fused to GST) (human) (UniProt P09601)
T1 sequence: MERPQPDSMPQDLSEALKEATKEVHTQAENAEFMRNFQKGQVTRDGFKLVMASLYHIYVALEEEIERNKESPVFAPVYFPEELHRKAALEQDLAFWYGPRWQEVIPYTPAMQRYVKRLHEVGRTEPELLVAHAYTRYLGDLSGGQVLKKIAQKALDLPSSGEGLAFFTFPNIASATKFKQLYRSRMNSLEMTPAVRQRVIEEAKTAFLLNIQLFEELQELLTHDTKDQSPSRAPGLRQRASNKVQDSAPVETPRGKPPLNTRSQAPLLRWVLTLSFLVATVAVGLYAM

The chains behind the UniProt entries cited, without tags or fusion partners. Where a name states a change or a piece, a line headed by the entry shows the natural chain unless it says otherwise. Residues count along the entry.
UniProt P06748: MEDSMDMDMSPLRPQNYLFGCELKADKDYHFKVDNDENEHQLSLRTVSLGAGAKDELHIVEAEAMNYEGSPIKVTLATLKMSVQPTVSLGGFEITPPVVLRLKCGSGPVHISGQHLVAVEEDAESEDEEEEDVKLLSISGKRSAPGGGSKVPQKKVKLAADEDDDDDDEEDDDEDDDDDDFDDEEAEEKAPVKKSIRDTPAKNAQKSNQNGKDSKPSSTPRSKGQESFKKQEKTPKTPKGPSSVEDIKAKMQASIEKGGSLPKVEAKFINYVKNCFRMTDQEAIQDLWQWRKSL
UniProt Q13185: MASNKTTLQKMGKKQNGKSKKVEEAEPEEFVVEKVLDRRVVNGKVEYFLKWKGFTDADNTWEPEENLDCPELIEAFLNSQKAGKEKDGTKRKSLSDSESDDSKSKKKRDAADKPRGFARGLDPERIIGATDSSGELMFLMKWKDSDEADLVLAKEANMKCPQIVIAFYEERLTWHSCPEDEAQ
UniProt P06396, residues 28-782: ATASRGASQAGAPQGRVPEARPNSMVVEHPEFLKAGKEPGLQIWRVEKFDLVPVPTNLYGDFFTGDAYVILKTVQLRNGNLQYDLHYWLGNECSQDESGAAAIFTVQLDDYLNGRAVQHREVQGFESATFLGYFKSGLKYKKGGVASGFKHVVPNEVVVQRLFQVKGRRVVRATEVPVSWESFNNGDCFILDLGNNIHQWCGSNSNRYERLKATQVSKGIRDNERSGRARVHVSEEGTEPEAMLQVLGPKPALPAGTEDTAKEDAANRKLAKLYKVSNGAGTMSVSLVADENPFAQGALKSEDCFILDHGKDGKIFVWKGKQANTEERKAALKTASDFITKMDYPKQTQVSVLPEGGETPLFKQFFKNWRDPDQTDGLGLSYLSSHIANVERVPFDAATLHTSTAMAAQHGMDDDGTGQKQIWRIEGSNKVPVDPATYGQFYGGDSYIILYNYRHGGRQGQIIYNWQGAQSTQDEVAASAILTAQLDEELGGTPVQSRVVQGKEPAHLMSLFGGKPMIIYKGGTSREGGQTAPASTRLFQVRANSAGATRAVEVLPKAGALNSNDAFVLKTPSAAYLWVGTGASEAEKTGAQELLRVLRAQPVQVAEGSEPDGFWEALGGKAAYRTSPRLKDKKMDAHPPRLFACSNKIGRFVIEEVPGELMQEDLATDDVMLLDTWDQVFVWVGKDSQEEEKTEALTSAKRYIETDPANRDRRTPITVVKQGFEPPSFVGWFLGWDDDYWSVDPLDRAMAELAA
UniProt P63104: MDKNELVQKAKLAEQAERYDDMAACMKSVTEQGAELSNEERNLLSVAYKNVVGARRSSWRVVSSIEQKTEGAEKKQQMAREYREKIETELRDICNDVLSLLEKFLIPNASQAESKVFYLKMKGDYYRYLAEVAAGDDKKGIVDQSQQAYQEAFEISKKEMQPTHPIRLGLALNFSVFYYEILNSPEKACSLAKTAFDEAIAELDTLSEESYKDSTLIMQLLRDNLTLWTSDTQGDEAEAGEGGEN
UniProt Q16531: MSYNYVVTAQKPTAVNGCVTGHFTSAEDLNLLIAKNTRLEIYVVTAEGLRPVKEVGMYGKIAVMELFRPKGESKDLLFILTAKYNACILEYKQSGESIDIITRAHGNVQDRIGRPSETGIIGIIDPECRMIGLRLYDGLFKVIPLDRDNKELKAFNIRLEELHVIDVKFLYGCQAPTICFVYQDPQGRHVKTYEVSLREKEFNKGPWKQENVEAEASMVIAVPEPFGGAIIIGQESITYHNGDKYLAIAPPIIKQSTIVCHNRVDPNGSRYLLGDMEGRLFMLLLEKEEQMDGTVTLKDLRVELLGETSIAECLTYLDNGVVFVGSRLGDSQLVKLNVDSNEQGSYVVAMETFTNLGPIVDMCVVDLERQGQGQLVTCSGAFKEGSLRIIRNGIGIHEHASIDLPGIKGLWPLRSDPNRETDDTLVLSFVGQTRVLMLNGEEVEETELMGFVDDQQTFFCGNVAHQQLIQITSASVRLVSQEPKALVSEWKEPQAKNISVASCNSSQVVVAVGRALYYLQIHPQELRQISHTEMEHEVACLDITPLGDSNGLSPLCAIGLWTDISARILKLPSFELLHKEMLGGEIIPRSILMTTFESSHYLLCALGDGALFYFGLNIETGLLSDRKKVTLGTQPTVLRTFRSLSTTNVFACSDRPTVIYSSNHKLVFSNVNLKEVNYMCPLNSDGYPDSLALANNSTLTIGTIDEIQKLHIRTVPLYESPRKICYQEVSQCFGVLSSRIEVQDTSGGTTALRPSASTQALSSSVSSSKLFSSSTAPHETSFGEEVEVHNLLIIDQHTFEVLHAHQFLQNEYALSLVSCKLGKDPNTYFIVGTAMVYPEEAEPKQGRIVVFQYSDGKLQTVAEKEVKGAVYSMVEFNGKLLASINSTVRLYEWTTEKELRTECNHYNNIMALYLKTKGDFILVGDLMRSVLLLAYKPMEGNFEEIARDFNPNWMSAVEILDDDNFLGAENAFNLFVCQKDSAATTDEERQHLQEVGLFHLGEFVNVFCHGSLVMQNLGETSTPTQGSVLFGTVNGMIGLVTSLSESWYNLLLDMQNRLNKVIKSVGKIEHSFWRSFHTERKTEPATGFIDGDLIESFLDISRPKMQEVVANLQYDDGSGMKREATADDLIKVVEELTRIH
UniProt P04792: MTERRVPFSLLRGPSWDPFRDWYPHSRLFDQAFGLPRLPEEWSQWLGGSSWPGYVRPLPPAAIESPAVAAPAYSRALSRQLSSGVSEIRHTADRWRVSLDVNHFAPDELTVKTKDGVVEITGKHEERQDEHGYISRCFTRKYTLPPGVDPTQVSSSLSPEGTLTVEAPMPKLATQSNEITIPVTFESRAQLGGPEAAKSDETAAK
UniProt O75369: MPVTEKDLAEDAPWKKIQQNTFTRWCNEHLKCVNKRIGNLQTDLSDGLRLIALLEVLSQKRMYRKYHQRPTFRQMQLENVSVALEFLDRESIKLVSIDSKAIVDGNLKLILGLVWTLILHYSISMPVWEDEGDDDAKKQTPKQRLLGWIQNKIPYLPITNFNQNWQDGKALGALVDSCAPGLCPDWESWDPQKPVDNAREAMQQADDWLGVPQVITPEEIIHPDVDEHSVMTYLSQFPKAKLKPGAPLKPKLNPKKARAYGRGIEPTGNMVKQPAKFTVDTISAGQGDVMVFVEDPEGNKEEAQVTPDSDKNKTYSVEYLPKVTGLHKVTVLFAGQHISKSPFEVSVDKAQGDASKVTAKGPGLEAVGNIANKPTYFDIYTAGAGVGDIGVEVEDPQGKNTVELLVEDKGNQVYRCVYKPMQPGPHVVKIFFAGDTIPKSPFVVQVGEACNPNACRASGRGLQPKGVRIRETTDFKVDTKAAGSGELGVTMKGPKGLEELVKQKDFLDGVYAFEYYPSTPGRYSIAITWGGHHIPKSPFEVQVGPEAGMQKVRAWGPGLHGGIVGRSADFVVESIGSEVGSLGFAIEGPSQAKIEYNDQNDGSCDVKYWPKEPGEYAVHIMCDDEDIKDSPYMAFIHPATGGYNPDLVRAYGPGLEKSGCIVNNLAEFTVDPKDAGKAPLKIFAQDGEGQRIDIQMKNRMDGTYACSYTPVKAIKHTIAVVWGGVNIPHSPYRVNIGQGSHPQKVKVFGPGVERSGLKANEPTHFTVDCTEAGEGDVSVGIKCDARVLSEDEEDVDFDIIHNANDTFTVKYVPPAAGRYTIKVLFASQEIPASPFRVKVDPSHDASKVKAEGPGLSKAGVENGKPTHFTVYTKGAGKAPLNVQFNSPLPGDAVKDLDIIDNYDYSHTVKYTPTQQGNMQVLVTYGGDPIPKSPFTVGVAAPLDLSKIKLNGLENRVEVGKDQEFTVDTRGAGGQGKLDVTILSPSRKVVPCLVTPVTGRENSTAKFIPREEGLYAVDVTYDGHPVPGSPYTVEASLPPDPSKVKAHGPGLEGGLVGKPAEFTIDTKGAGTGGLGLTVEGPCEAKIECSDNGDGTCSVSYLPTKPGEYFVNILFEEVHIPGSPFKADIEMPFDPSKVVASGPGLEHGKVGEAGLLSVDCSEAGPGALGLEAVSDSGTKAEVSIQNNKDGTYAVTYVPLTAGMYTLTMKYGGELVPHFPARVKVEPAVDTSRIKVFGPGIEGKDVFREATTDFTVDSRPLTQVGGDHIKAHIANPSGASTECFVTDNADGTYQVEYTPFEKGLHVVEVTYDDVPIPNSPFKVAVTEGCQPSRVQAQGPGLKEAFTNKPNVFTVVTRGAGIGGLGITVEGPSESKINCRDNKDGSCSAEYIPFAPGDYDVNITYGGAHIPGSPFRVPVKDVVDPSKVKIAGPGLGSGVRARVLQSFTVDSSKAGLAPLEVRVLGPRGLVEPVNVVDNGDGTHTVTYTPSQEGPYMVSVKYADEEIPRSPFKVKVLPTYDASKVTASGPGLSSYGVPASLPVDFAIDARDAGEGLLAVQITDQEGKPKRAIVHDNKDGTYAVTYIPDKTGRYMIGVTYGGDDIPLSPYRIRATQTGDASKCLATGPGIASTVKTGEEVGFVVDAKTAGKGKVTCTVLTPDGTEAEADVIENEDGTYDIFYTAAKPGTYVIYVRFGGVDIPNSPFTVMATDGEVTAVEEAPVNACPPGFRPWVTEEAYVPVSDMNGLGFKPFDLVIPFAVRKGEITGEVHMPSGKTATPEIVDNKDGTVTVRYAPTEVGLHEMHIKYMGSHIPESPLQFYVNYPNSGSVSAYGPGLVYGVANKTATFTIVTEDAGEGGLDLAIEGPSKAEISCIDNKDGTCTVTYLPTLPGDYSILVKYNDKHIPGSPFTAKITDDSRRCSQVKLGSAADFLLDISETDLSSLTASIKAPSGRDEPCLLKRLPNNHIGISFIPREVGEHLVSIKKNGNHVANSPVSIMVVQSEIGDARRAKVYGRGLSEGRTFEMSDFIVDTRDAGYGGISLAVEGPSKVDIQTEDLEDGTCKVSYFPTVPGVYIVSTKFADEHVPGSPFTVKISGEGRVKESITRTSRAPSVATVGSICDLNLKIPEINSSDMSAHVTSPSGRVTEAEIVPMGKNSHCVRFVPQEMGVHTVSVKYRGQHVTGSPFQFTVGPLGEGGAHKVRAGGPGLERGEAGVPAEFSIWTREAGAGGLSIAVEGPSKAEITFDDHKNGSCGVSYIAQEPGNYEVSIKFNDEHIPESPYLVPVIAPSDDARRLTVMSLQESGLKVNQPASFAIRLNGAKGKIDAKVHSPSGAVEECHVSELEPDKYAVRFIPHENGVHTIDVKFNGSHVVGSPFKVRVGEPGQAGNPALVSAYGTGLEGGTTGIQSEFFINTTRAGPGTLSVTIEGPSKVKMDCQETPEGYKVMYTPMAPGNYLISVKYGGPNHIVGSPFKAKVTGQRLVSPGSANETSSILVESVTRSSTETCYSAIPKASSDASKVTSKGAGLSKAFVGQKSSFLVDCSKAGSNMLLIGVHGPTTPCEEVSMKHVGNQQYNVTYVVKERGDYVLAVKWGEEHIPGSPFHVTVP
UniProt P17096: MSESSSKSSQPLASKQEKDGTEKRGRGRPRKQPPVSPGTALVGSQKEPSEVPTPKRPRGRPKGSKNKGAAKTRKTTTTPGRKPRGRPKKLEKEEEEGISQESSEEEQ
UniProt Q13263: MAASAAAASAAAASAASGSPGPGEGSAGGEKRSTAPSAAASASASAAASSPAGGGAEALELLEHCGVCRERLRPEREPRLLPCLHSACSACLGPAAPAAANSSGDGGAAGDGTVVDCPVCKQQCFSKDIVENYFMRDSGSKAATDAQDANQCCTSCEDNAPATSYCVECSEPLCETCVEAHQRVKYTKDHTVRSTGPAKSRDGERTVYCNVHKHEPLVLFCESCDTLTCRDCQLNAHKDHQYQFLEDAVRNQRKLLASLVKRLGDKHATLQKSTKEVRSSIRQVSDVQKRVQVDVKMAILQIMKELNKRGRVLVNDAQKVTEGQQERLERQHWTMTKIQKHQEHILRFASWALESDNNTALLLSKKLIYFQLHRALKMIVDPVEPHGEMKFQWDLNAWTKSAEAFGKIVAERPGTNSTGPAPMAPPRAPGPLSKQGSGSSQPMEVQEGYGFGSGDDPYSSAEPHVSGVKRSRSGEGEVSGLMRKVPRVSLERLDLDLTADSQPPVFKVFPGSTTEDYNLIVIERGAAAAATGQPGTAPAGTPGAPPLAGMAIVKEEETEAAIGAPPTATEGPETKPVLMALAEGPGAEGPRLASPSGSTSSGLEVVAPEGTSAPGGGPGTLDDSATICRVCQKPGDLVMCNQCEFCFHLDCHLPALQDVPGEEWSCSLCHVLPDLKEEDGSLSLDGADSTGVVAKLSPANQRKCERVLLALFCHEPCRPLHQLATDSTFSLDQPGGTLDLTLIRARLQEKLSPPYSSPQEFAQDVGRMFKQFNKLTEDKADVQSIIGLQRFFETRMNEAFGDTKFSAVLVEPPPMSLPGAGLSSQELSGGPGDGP
UniProt P83916: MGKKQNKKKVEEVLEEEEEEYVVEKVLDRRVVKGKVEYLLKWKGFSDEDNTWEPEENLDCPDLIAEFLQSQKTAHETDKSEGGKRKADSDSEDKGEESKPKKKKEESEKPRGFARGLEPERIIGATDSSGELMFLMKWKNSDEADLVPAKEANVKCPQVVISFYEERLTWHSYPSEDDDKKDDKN

B1: matrin 3 (protein, UniProt P43243 1-847)
chain: MSKSFQQSSLSRDSQGHGRDLSAAGIGLLAAATQSLSMPASLGRMNQGTARLASLMNLGMSSSLNQQGAHSALSSASTSSHNLQSIFNIGSRGPLPLSSQHRGDADQASNILASFGLSARDLDELSRYPEDKITPENLPQILLQLKRRRTEEGPTLSYGRDGRSATREPPYRVPRDDWEEKRHFRRDSFDDRGPSLNPVLDYDHGSRSQESGYYDRMDYEDDRLRDGERCRDDSFFGETSHNYHKFDSEYERMGRGPGPLQERSLFEKKRGAPPSSNIEDFHGLLPKGYPHLCSICDLPVHSNKEWSQHINGASHSRRCQLLLEIYPEWNPDNDTGHTMGDPFMLQQSTNPAPGILGPPPPSFHLGGPAVGPRGNLGAGNGNLQGPRHMQKGRVETSRVVHIMDFQRGKNLRYQLLQLVEPFGVISNHLILNKINEAFIEMATTEDAQAAVDYYTTTPALVFGKPVRVHLSQKYKRIKKPEGKPDQKFDQKQELGRVIHLSNLPHSGYSDSAVLKLAEPYGKIKNYILMRMKSQAFIEMETREDAMAMVDHCLKKALWFQGRCVKVDLSEKYKKLVLRIPNRGIDLLKKDKSRKRSYSPDGKESPSDKKSKTDGSQKTESSTEGKEQEEKSGEDGEKDTKDDQTEQEPNMLLESEDELLVDEEEAAALLESGSSVGDETDLANLGDVASDGKKEPSDKAVKKDGSASAAAKKKLKKVDKIEELDQENEAALENGIKNEENTEPGAESSENADDPNKDTSENADGQSDENKDDYTIPDEYRIGPYQPNVPVGIDYVIPKTGFYCKLCSLFYTNEEVAKNTHCSSLPHYQKLKKFLNKLAEERRQKKET
B2: testin (protein, UniProt Q9UGI8 1-421)
chain: MDLENKVKKMGLGHEQGFGAPCLKCKEKCEGFELHFWRKICRNCKCGQEEHDVLLSNEEDRKVGKLFEDTKYTTLIAKLKSDGIPMYKRNVMILTNPVAAKKNVSINTVTYEWAPPVQNQALARQYMQMLPKEKQPVAGSEGAQYRKKQLAKQLPAHDQDPSKCHELSPREVKEMEQFVKKYKSEALGVGDVKLPCEMDAQGPKQMNIPGGDRSTPAAVGAMEDKSAEHKRTQYSCYCCKLSMKEGDPAIYAERAGYDKLWHPACFVCSTCHELLVDMIYFWKNEKLYCGRHYCDSEKPRCAGCDELIFSNEYTQAENQNWHLKHFCCFDCDSILAGEIYVMVNDKPVCKPCYVKNHAVVCQGCHNAIDPEVQRVTYNNFSWHASTECFLCSCCSKCLIGQKFMPVEGMVFCSVECKKRMS
B3: splicing factor rich in serine and arginine 3 (protein, UniProt P84103 1-164)
chain: MHRDSCPLDCKVYVGNLGNNGNKTELERAFGYYGPLRSVWVARNPPGFAFVEFEDPRDAADAVRELDGRTLCGCRVRVELSNGEKRSRNRGPPPSWGRRPRDDYRRRSPPPRRRSPRRRSFSRSRSRSLSRDRRRERSLSRERNHKPSRSFSRSRSRSRSNERK

Target: T1, GST-HO-1 (heme oxygenase 1 fused to GST) (human)
Assay: affinity purification with mass spectrometry; GST-HO-1 from transfected PC3 cells treated with H2O2 (200 µM), extracts in 20 mM Tris, 150 mM NaCl, 5 mM MgCl2, 0.5% NP40, pH 7.5, held on glutathione-agarose beads 2 h at 4 °C; LC ESI-MS/MS; only proteins differential against GST empty vector kept

Molecule | binding
nucleophosmin 1 (from UniProt P06748 1-294) | binds
chromobox 3 (from UniProt Q13185 1-183) | binds
Gelsolin (from UniProt P06396 28-782) | binds
14-3-3 zeta delta-like protein (14-3-3ζ/δ) (from UniProt P63104 1-245) | binds
damage specific DNA binding protein 1 (from UniProt Q16531 1-1140) | binds
heat shock protein family B (small) member 1 (from UniProt P04792 1-205) | binds
filamin B (from UniProt O75369 1-2602) | binds
zinc finger CCCH-type containing, antiviral 1 (from UniProt Q7Z2W4 1-902) | binds
high mobility group AT-hook 1 (from UniProt P17096 1-107) | binds
tripartite motif-containing 28 (from UniProt Q13263 1-835) | binds
chromobox 1 (from UniProt P83916 1-185) | binds
B1 | binds
B2 | binds
B3 | binds
